Source: publication PMC2935968
Where a chain is given by its changes, count along the chain named. Numbers in names are those of the source. Results are given in words; binding and its absence hold for the method and conditions named. Binding calls can cover weak binding; strength is not graded here. For some assays here: Sequences can lack the tags named with a protein. For some assays here: Binding seen in cells or lysates may run through a third protein. Values belong to the binder of their own block, whether it stands above or below them.

Assays:
GST-Sgt1 (Arabidopsis) [1] = test: pull-down; GST-Sgt1 as bait, Hsp90 and a Rar1 construct or mutant both present; both purified
[2] = molecular target: Sgt1 (coprecipitation assay of Figure 3C); test: co-IP; coprecipitation assays (Figure 3C); taken as the in vivo analysis: formaldehyde-cross-linked Agrobacterium-infiltrated N. benthamiana leaves, α-myc (9E10) agarose beads, blots with α-HA and α-Myc; the paper does not tie the method to the figure
GST-Sgt1 (Arabidopsis) [3] = test: pull-down; GST-Sgt1 as bait in a wheat-germ cell-free lysate with Hsp90 and Myc-N, Rar1 P38L or K45E present; only the target purified
GST-Sgt1 (Arabidopsis) [4] = test: pull-down; GST-Sgt1 as bait in a wheat-germ cell-free lysate with Hsp90 and Myc-N, wild-type Rar1 present; only the target purified
GST-Sgt1 (Arabidopsis) [5] = test: pull-down; GST-Sgt1 as bait in a wheat-germ cell-free lysate with Hsp90 and Myc-N, truncated Rar1 mutants lacking the CHORDI domain present; only the target purified

binding (GST-Sgt1 (Arabidopsis) [1]): binds
B1: CHORDII domain of cress (Arabidopsis thaliana) Rar1 (domain or fragment, UniProt Q9SE33 149-221)
chain: AVIDINQPQVCKNKGCGQTFKERDNHETACSHHPGPAVFHDRLRGWKCCDVHVKEFDEFMEIPPCTKGWHSSS

binding (GST-Sgt1 (Arabidopsis) [1]): binds
B2: Rar1 (wild type, not GST-tagged) (protein, UniProt Q9SE33 1-226)
chain: MEVGSATKKLQCQRIGCNAMFTDDDNPQGSCQFHASGPFFHDGMKEWSCCKQRSHDFSLFLEIPGCKTGKHTTEKPVLAKSVPKHPVAAPTSSPDANAATKDSCSRCRQGFFCSDHGSQPKEQIKQTLNTPGQAEEEKIEPLAPPVQKAVIDINQPQVCKNKGCGQTFKERDNHETACSHHPGPAVFHDRLRGWKCCDVHVKEFDEFMEIPPCTKGWHSSSPDPAV

binding [2]: binds
B3: Rar1 (wild type, coprecipitation assay of Figure 3C) (protein, UniProt Q9SE33 1-226)
chain: B2 chain

binding (GST-Sgt1 (Arabidopsis) [1]): no binding
B4: Rar1 E170K (prey of GST-Sgt1) (protein, UniProt Q9SE33 1-226)
chain: B2 chain with E170K

binding (GST-Sgt1 (Arabidopsis) [1]): no binding
B5: Rar1 I153Q (prey of GST-Sgt1) (protein, UniProt Q9SE33 1-226)
chain: B2 chain with I153Q

binding (GST-Sgt1 (Arabidopsis) [1]): binds
B6: Rar1 K45E (prey of GST-Sgt1) (protein, UniProt Q9SE33 1-226)
chain: B2 chain with K45E

binding (GST-Sgt1 (Arabidopsis) [1]): binds
B7: Rar1 P38L (prey of GST-Sgt1) (protein, UniProt Q9SE33 1-226)
chain: B2 chain with P38L

binding (GST-Sgt1 (Arabidopsis) [1]): no binding
B8: Rar1 W217T (prey of GST-Sgt1) (protein, UniProt Q9SE33 1-226)
chain: B2 chain with W217T

binding (GST-Sgt1 (Arabidopsis) [3]): binds
binding (GST-Sgt1 (Arabidopsis) [4]): binds
binding (GST-Sgt1 (Arabidopsis) [5]): binds
B9: Myc-tagged disease resistance protein N (from Nicotiana tabaccum) (receptor, UniProt Q40392 1-1144)
chain: MASSSSSSRWSYDVFLSFRGEDTRKTFTSHLYEVLNDKGIKTFQDDKRLEYGATIPGELCKAIEESQFAIVVFSENYATSRWCLNELVKIMECKTRFKQTVIPIFYDVDPSHVRNQKESFAKAFEEHETKYKDDVEGIQRWRIALNEAANLKGSCDNRDKTDADCIRQIVDQISSKLCKISLSYLQNIVGIDTHLEKIESLLEIGINGVRIMGIWGMGGVGKTTIARAIFDTLLGRMDSSYQFDGACFLKDIKENKRGMHSLQNALLSELLREKANYNNEEDGKHQMASRLRSKKVLIVLDDIDNKDHYLEYLAGDLDWFGNGSRIIITTRDKHLIEKNDIIYEVTALPDHESIQLFKQHAFGKEVPNENFEKLSLEVVNYAKGLPLALKVWGSLLHNLRLTEWKSAIEHMKNNSYSGIIDKLKISYDGLEPKQQEMFLDIACFLRGEEKDYILQILESCHIGAEYGLRILIDKSLVFISEYNQVQMHDLIQDMGKYIVNFQKDPGERSRLWLAKEVEEVMSNNTGTMAMEAIWVSSYSSTLRFSNQAVKNMKRLRVFNMGRSSTHYAIDYLPNNLRCFVCTNYPWESFPSTFELKMLVHLQLRHNSLRHLWTETKHLPSLRRIDLSWSKRLTRTPDFTGMPNLEYVNLYQCSNLEEVHHSLGCCSKVIGLYLNDCKSLKRFPCVNVESLEYLGLRSCDSLEKLPEIYGRMKPEIQIHMQGSGIRELPSSIFQYKTHVTKLLLWNMKNLVALPSSICRLKSLVSLSVSGCSKLESLPEEIGDLDNLRVFDASDTLILRPPSSIIRLNKLIILMFRGFKDGVHFEFPPVAEGLHSLEYLNLSYCNLIDGGLPEEIGSLSSLKKLDLSRNNFEHLPSSIAQLGALQSLDLKDCQRLTQLPELPPELNELHVDCHMALKFIHYLVTKRKKLHRVKLDDAHNDTMYNLFAYTMFQNISSMRHDISASDSLSLTVFTGQPYPEKIPSWFHHQGWDSSVSVNLPENWYIPDKFLGFAVCYSRSLIDTTAHLIPVCDDKMSRMTQKLALSECDTESSNYSEWDIHFFFVPFAGLWDTSKANGKTPNDYGIIRLSFSGEEKMYGLRLLYKEGPEVNALLQMRENSNEPTEHSTGIRRTQYNNRTSFYELING
